The whole screen tested about 220,000 compounds, of which about 770 (0.35%) were called active. This list was built around the results that the source calls inconclusive (neither active nor inactive); the mix of calls is not that of the screen. No stated cut-off is given here; in the data, active means binding response below about 49% or above about 150%; inconclusive means no clear call, values can overlap the other calls; inactive means in between.
Molecular target: Guanine nucleotide-binding protein G(o) subunit alpha (Homo sapiens) (UniProt P09471)
Assay: RGS7-Galphao binding modulators, primary screen, biochemical, multiplexed bead flow cytometry (AID 1439);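 further: fluorescent Galphao held in activated GDP-AlF4 state binding bead-coupled RGS7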
Conditions: at 10 µM, actives lie on both sides

Amino acid sequences for entries named in this document (tags omitted).
UniProt P09471, whole entry, looked up: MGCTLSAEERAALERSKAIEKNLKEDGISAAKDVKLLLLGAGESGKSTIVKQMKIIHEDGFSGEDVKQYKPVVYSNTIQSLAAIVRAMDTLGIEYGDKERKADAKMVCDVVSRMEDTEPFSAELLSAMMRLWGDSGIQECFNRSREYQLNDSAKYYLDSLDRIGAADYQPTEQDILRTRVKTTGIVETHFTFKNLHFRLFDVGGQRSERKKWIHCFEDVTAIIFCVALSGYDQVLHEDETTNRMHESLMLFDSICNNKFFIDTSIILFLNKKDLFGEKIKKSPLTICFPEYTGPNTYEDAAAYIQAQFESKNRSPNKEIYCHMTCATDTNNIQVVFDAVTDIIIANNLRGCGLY

| Structure (SMILES) | binding response (% of control) |
| --- | --- |
| CCN1CCN(C(c2cccs2)C(C)NC(=S)Nc2cccc(C)c2C)CC1 (stereo not given) | inconclusive: 95.5% |
| Cc1nn(-c2ccccc2C(F)(F)F)c(=O)c2noc(C)c12 | inconclusive: 295% |
| Cc1ccc(NC(=O)C(=O)NCC2CCCO2)cc1 (stereo not given) | inconclusive: 148% |
| COc1ccc(CN2CCN(S(=O)(=O)c3ccc(F)cc3)CC2)c(OC)c1OC | inactive: 98.5% |
| CC(C)CCNC(=O)C(=O)NCc1ccccc1 | inconclusive: 2.59% |
| C=C(C)c1cccc(C(C)(C)NC(=O)N2CCCCC2CC)c1 (stereo not given) | inactive: 124% |
| CC(C)Nc1ccc(C(CC(N)=O)NC(=O)Cc2cccc3ccccc23)cc1[N+](=O)[O-] (stereo not given) | inconclusive: 95% |
| CC(OCC(O)CN(C)Cc1nc2ccccc2c(=O)[nH]1)c1ccc(Cl)cc1 (stereo not given) | inactive: 104% |
| COc1cc(/C=C(/NC(C)=O)C(=O)O)cc(Cl)c1OCc1ccc(Br)cc1 | inconclusive: 88.8% |
| CC(=O)Nc1ccc(SC[C@H](CC(C)C)N2CCN(CCc3ccccc3)CCC2=O)cc1 | inconclusive: 130% |
| O=C(Cn1nnc(-c2ccccc2)n1)NNC(=O)c1ccc(Br)cc1 | inconclusive: 113% |
| CCSc1ncccc1C(=O)N[C@@H](CCSC)C(=O)OC | inconclusive: 102% |
| Cc1ccc(-c2c(C)sc3ncn(CC(=O)N4CCOCC4)c(=O)c23)cc1C | inconclusive: 114% |
| O=[N+]([O-])c1ccccc1/C=C/C=N/n1c(-c2cc(-c3ccccc3)n[nH]2)n[nH]c1=S | inconclusive: 397% |
| COC(=O)c1ccccc1NC(=O)Cn1nc2n(C)c3ccccc3n2c(=O)c1=O | inactive: 104% |
| CCCCCCCC/C=C\CCCCCCCC(=O)O | inconclusive: 156% |
| Cn1c(=O)c2c(nc(NCc3cccnc3)n2Cc2ccccc2Cl)n(C)c1=O | inconclusive: 104% |
| C[C@@H]1C[C@@H]2OC(=O)[C@]3(C)[C@H]2[C@@H](OC3(C)O)[C@]2(C)C(=O)C=C[C@H]12 (stereo not given in full) | inconclusive: 104% |
| CCOC(=O)N1CCC(N2Cc3cccc(C(=O)N4CCN(c5cccc(Cl)c5)CC4)c3C2=O)CC1 | inactive: 99.9% |
| CCc1cc2c(=O)c(-c3nc4ccccc4[nH]3)coc2c(CN2CCCCC2C)c1O (stereo not given) | inconclusive: 93% |
| Cn1c2ccccc2c2cc([N+](=O)[O-])ccc21 | inconclusive: 229% |
| Cc1ccccc1C(=O)OCc1nnc(-c2ccc(Cl)cc2)o1 | inconclusive: 104% |
| O=C1c2ccc([N+](=O)[O-])cc2NC(c2ccco2)N1/N=C/c1ccco1 (stereo not given) | inconclusive: 98.1% |

| Structure (SMILES) | binding response (% of control) |
| --- | --- |
| COc1ccc(NC(=S)N2CCN(c3ncccn3)CC2)cc1 | inconclusive: 81.6% |
| O=C(COC(=O)CNC(=O)c1ccccc1F)Nc1cccnc1Cl | inactive: 100% |
| CCOC(=O)c1cnn(-c2cc(C)cc(C)c2)c1N | inconclusive: 114% |
| O=c1cc(C(F)(F)F)[nH]c2ccc(OC(F)(F)F)cc12 | inconclusive: 97.4% |
| Cc1cc(NC(=O)C(=O)NCc2cccc(Cl)c2)no1 | inconclusive: 113% |
| O=C(O)C1CCC1C(=O)Nc1nc(-c2ccc(Cl)s2)cs1 (stereo not given) | inconclusive: -454% |
| Cc1cc(C(=O)Nc2cccc3cccnc23)ccc1[N+](=O)[O-] | inactive: 97.7% |
| CCNC(=O)COC(=O)/C=C/c1cccc(F)c1 | inconclusive: 109% |
| O=C1CC(C(F)(F)F)=NN1 | inconclusive: 90.6% |
| Cc1ccc2cc(/C=N/Nc3ccc(C(=O)O)cc3)c(Cl)nc2c1 | inconclusive: 73.2% |
| Cc1ccccc1NC(=S)NCC1CCC(CNC(=S)Nc2ccccc2C)CC1 (stereo not given) | inconclusive: 127% |
| CCC(=O)Nc1ccc(N/C(N)=N/c2nc(C)cc(C)n2)cc1 | inconclusive: 132% |
| O=C(NCCc1ccccc1)C1CCC(CNc2nc(=S)[nH]c3ccccc23)CC1 (stereo not given) | inactive: 100% |
| CCOC(=O)Cn1nc(C)c(NC(=O)COc2ccc(C)c(C)c2)c1C | inconclusive: 71.2% |
| Cc1onc(-c2ccccc2)c1C(=O)NC(=S)NNC(=O)c1cc(-c2ccc(F)cc2)n[nH]1 | inconclusive: 101% |
| Cc1ccc2nc(NC(=O)CCn3cccc3)sc2c1 | inconclusive: 93.5% |
| CCSc1nc(C)c(C)c(=O)[nH]1 | inconclusive: 112% |
| CC(C)CCNC(=O)NC(=O)COC(=O)/C=C/c1cccc([N+](=O)[O-])c1 | inconclusive: 94.3% |
| Cc1c(/C=N/NC(N)=O)c2ccccn2c1C(=O)c1ccncc1 | inconclusive: 99.3% |
| CCC(=O)N(C)CCc1cc2c(c(OC)c1/C=N/NS(=O)(=O)c1ccc(C)cc1)OCO2 | inconclusive: 55.2% |
| Cc1snc2sc(C(=O)c3ccc(F)cc3)c(N)c12 | inconclusive: 82.1% |
| CCC(=O)Nc1nc2c(c(=O)[nH]1)CCCC2 | inconclusive: 95% |
| Cc1ccc(C)n1-c1ccc(C(=O)NCc2ccncc2)cc1 | inconclusive: 102% |

| Structure (SMILES) | binding response (% of control) |
| --- | --- |
| CC(O)c1cccc(NC(=O)CCC(=O)O)c1 (stereo not given) | inactive: 102% |
| CC1CCN(S(=O)(=O)c2cccc(C(=O)Oc3ccc([N+](=O)[O-])cc3)c2)CC1 | inactive: 114% |
| CCOC(=O)c1ccc(NC(=O)COc2ccccc2CNCCO)cc1 | inconclusive: 91.4% |
| NS(=O)(=O)c1ccc(NC(=O)COC(=O)c2cnc(Cl)c(Cl)c2)cc1 | inconclusive: 24% |
| Cc1ccc2[nH]c(C(=O)NN=C3CCCCC3)c(-c3ccccc3)c2c1 | inconclusive: 85% |
| Cc1nc(SCC(=O)c2ccc(F)c(F)c2)[nH]c(=O)c1Oc1ccc(Cl)cc1 | inconclusive: 104% |
| O=C(O)CCc1ccc(-c2ccc(Br)cc2)n1NC(=O)c1ccc([N+](=O)[O-])cc1 | inconclusive: 108% |
| Cc1nc(N)nc(COc2ccccc2)n1 | inconclusive: 119% |
| CCOC(=O)CNC(=O)CSc1nnc(SCC(=O)NCC(=O)OCC)s1 | inactive: 115% |
| CC(/C=N/NC(=O)CNc1n[nH]c(=O)[nH]c1=O)c1ccccc1 (stereo not given) | inconclusive: 87.5% |
| O=S(=O)(Nc1cc(C(F)(F)F)ccc1N1CCOCC1)c1ccccc1 | inconclusive: 22.1% |
| Cc1[nH]c2ccccc2c1C(=O)CSC(=S)N1CCN(C)CC1 | inconclusive: 85% |
| O=C(c1ccc2c(c1)OCO2)N1CCC2(CC1)Oc1ccc(F)cc1C(=O)C21CC(c2ccc(Cl)cc2)=NO1 (stereo not given) | inconclusive: 105% |
| COc1cccc(CN(C)CC(=O)Nc2cccc3ccccc23)c1 | inconclusive: 113% |
| Cc1ccc(S(=O)(=O)NCC(=O)OCc2ccccc2)cc1 | inconclusive: 118% |
| Cc1cccc(N2C(=O)CS/C2=N\NC(=O)c2ccc(Br)cc2)c1C | inactive: 106% |
| O=C(CNCCO)Nc1ccc(F)c(Cl)c1 | inconclusive: 104% |
| Cn1c(=O)c2c(ncn2C)n(C)c1=O | inconclusive: 118% |
| COc1ccc(CN(C(=O)/C=C/c2ccccc2Cl)C2CCS(=O)(=O)C2)cc1 (stereo not given) | inconclusive: 81.3% |
| CC(=O)c1cn(Cc2ccccc2)c(=O)[nH]c1=O | inconclusive: 83.8% |
| COc1ccc(C)cc1-n1cnnn1 | inconclusive: 91.7% |
| CC(=O)c1cc(N2CCOCC2)ccc1[N+](=O)[O-] | inconclusive: 116% |
| NS(=O)(=O)c1ccc(NC(=O)COC(=O)COc2ccc(Br)cc2)cc1 | inconclusive: 108% |

Ordered by count of non-hydrogen atoms (low to high): part of the list above

| Structure (SMILES) | binding response (% of control) |
| --- | --- |
| CC(O)c1cccc(NC(=O)CCC(=O)O)c1 (stereo not given) | inactive: 102% |
| Cc1cccc(N2C(=O)CS/C2=N\NC(=O)c2ccc(Br)cc2)c1C | inactive: 106% |
| CCOC(=O)c1ccc(NC(=O)COc2ccccc2CNCCO)cc1 | inconclusive: 91.4% |
| O=C(O)CCc1ccc(-c2ccc(Br)cc2)n1NC(=O)c1ccc([N+](=O)[O-])cc1 | inconclusive: 108% |

Next compounds:

| Structure (SMILES) | binding response (% of control) |
| --- | --- |
| O=C(NC(=O)c1c(Cl)cccc1Cl)Nc1ccc(Oc2cccnc2)nc1 | inconclusive: 188% |
| CCN1CCN(c2oc(/C=C/c3ccccc3)nc2C#N)CC1 | inconclusive: 101% |
| COC(=O)CCCC1=CC2=CC(=O)C(C)(OC(=O)c3cccs3)C(=O)C2=CN1CCCOC(C)C (stereo not given) | inconclusive: 105% |
| O=C(Nc1ccc([N+](=O)[O-])cc1)Nc1ccc(N2CCOCC2)c2nonc12 | inactive: 93.8% |
| Cc1cccc(-n2nnnc2-c2cnccc2C(F)(F)F)c1C | inconclusive: 101% |
| COc1ccc(C(=O)C2CCCN(C(=O)c3cnsn3)C2)c(C)c1 (stereo not given) | inconclusive: 83.2% |
| CCC(CO)n1c(=S)[nH]c2cc(OC)c(OC)cc2c1=O (stereo not given) | inactive: 100% |
| O=S(=O)(Nc1ncccn1)c1ccc(NC(=S)Nc2ccc(Cl)cc2)cc1 | inconclusive: 82.3% |
| COc1cccc(NC(=O)COC(=O)CC(NC(N)=O)c2ccc(Cl)cc2)c1 (stereo not given) | inconclusive: 110% |
| CC(=O)Nc1ccccc1P(=O)(c1ccccc1)c1ccccc1OC(C)=O (stereo not given) | inconclusive: 69.9% |
| O=C(Nc1cccc(NC(=O)C2C3CC4OC(=O)C2C4C3)c1)c1ccccc1 (stereo not given) | inactive: 94.2% |
| COc1ccc(C(=O)NCC(=O)OCC(=O)Nc2cccc(S(=O)(=O)N3CCCC3)c2)cc1 | inconclusive: 103% |
| CC1CCCC(NC(=O)C2CCN(S(=O)(=O)N3CCCCC3)CC2)C1C (stereo not given) | inconclusive: 119% |
| CCCc1c(C(=O)N2CCN(c3ccccc3OC)CC2)cnn1-c1ccccc1 | inconclusive: 0.41% |
| COC(=O)CNC(=O)COC(=O)Cc1ccc(Cl)cc1 | inconclusive: 93.5% |
| OC(c1ccccc1)C(CN1CCOCC1)c1ccccc1 (stereo not given) | inconclusive: 108% |
| CN(C)S(=O)(=O)c1cccc(NC(=S)N/N=C/c2cc(Br)ccc2O)c1 | inconclusive: 146% |
| CC(=O)c1ccc(COC(=O)c2ccccc2NC(=O)C(C)C)cc1 | inconclusive: 107% |
| CC(NC(=O)c1ccc2nc[nH]c2c1)c1ccccc1 (stereo not given) | inactive: 109% |
| CCN1/C(=C/c2ccc3cc(C)cc(C)c3[n+]2CC)Sc2cc(C)ccc21 | inactive: 99.6% |
| CC1(C)CC(N2CCN(C(c3ccccc3)c3ccccc3)CC2)=CC(=[N+]2CCCCC2)C1 | inconclusive: 135% |

Reference: PubChem BioAssay AID1439 (NMMLSC, 2008)
